Measurements reported in PubChem BioAssay AID1224828 (NIAID, 2016)
Test: 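Find genes required for NF-kappaB p65 moving into the nucleus after LPS in mouse macrophages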 (primary screen). Cell system: mouse RAW264.7 G9 macrophage reporter cells (GFP-p65, Tnf promoter-mCherry). Reagent: siRNA pool against mouse genes, 100 nM. Timing: 2 days siRNA transfection, then 40 min LPS before fixation. Challenge: LPS (Salmonella minnesota R595) at 10 ng/ml. Measured: 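Microscopy ratio of nuclear to perinuclear-ring GFP-p65 signal, scaled to the plate median; gene score is the average of two replicate robust z-scores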. Direction: p65 translocation robust z-score: higher = more nuclear NF-kappaB p65 after LPS than the plate median; nuclear/cytoplasmic p65 ratio: higher = more nuclear NF-kappaB p65. Call rule: 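Called active when z exceeds 3.3 or falls under -1.56 (median of Tlr4 controls), giving activity score of at least 50; no calls for control wells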. Meaning of the calls: active = hit (p65 shift raised or lowered); inactive = no clear change.
This is a random part of about 17,000 reagents. Of all reagents, 762 (4.5%) were called active. 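Active calls include both raised and lowered p65 entry, mostly lowered; wells with fewer than 50 cells lack a z-score.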 Raw values are not corrected between plates.

Fnbp1
- p65 translocation robust z-score: 0.67
- nuclear/cytoplasmic p65 ratio, rep 1: 1.78
- nuclear/cytoplasmic p65 ratio, rep 2: 1.47
- low cell count flag: enough cells to score
- call: inactive

Slc5a5
- p65 translocation robust z-score: 0.34
- nuclear/cytoplasmic p65 ratio, rep 1: 1.61
- nuclear/cytoplasmic p65 ratio, rep 2: 1.53
- low cell count flag: enough cells to score
- call: inactive

Yipf2
- p65 translocation robust z-score: -0.04
- nuclear/cytoplasmic p65 ratio, rep 1: 1.56
- nuclear/cytoplasmic p65 ratio, rep 2: 1.41
- low cell count flag: enough cells to score
- call: inactive

Gpsm2
- p65 translocation robust z-score: -0.62
- nuclear/cytoplasmic p65 ratio, rep 1: 1.43
- nuclear/cytoplasmic p65 ratio, rep 2: 1.48
- low cell count flag: enough cells to score
- call: inactive

Mgme1
- p65 translocation robust z-score: -1.66
- nuclear/cytoplasmic p65 ratio, rep 1: 1.3
- nuclear/cytoplasmic p65 ratio, rep 2: 1.2
- low cell count flag: enough cells to score
- call: active

Gnpnat1
- p65 translocation robust z-score: -1.69
- nuclear/cytoplasmic p65 ratio, rep 1: 1.42
- nuclear/cytoplasmic p65 ratio, rep 2: 1.27
- low cell count flag: enough cells to score
- call: active

Emilin2
- p65 translocation robust z-score: -0.53
- nuclear/cytoplasmic p65 ratio, rep 1: 1.33
- nuclear/cytoplasmic p65 ratio, rep 2: 1.3
- low cell count flag: enough cells to score
- call: inactive

Ufsp2
- p65 translocation robust z-score: 1.05
- nuclear/cytoplasmic p65 ratio, rep 1: 1.43
- nuclear/cytoplasmic p65 ratio, rep 2: 1.5
- low cell count flag: enough cells to score
- call: inactive

Tmprss11b
- nuclear/cytoplasmic p65 ratio, rep 1: 1.68
- nuclear/cytoplasmic p65 ratio, rep 2: 1.65
- low cell count flag: fewer than 50 cells per well; well left out of scoring
- call: inactive

Sostdc1
- nuclear/cytoplasmic p65 ratio, rep 1: 1.57
- nuclear/cytoplasmic p65 ratio, rep 2: 1.26
- low cell count flag: fewer than 50 cells per well; well left out of scoring
- call: inactive

Or4a47
- p65 translocation robust z-score: 0.1
- nuclear/cytoplasmic p65 ratio, rep 1: 1.62
- nuclear/cytoplasmic p65 ratio, rep 2: 1.44
- low cell count flag: enough cells to score
- call: inactive

Cdh24
- p65 translocation robust z-score: 0.32
- nuclear/cytoplasmic p65 ratio, rep 1: 1.58
- nuclear/cytoplasmic p65 ratio, rep 2: 1.91
- low cell count flag: enough cells to score
- call: inactive

Ubxn10
- p65 translocation robust z-score: -0.39
- nuclear/cytoplasmic p65 ratio, rep 1: 1.25
- nuclear/cytoplasmic p65 ratio, rep 2: 1.26
- low cell count flag: enough cells to score
- call: inactive

Cyp2j13
- p65 translocation robust z-score: 0.63
- nuclear/cytoplasmic p65 ratio, rep 1: 1.68
- nuclear/cytoplasmic p65 ratio, rep 2: 1.87
- low cell count flag: enough cells to score
- call: inactive

Vmn1r171
- nuclear/cytoplasmic p65 ratio, rep 1: 1.25
- nuclear/cytoplasmic p65 ratio, rep 2: 1.27
- low cell count flag: fewer than 50 cells per well; well left out of scoring
- call: inactive

Ptf1a
- nuclear/cytoplasmic p65 ratio, rep 1: 1.3
- nuclear/cytoplasmic p65 ratio, rep 2: 1.25
- low cell count flag: fewer than 50 cells per well; well left out of scoring
- call: inactive

Or2g25
- p65 translocation robust z-score: -0.91
- nuclear/cytoplasmic p65 ratio, rep 1: 1.54
- nuclear/cytoplasmic p65 ratio, rep 2: 1.42
- low cell count flag: enough cells to score
- call: inactive

Cxcr5
- p65 translocation robust z-score: -0.92
- nuclear/cytoplasmic p65 ratio, rep 1: 1.37
- nuclear/cytoplasmic p65 ratio, rep 2: 1.39
- low cell count flag: enough cells to score
- call: inactive

Pcmtd1
- p65 translocation robust z-score: 1
- nuclear/cytoplasmic p65 ratio, rep 1: 1.48
- nuclear/cytoplasmic p65 ratio, rep 2: 1.7
- low cell count flag: enough cells to score
- call: inactive

Zfand1
- nuclear/cytoplasmic p65 ratio, rep 1: 1.34
- nuclear/cytoplasmic p65 ratio, rep 2: 1.21
- low cell count flag: fewer than 50 cells per well; well left out of scoring
- call: inactive

Smarca5
- p65 translocation robust z-score: 1.53
- nuclear/cytoplasmic p65 ratio, rep 1: 1.66
- nuclear/cytoplasmic p65 ratio, rep 2: 1.88
- low cell count flag: enough cells to score
- call: inactive

Part of the list above, set out differently:
Target gene | p65 translocation robust z-score | nuclear/cytoplasmic p65 ratio, rep 1 | nuclear/cytoplasmic p65 ratio, rep 2 | low cell count flag | call
Ptf1a | – | 1.3 | 1.25 | fewer than 50 cells per well; well left out of scoring | inactive
Or2g25 | -0.91 | 1.54 | 1.42 | enough cells to score | inactive
Cxcr5 | -0.92 | 1.37 | 1.39 | enough cells to score | inactive
